Laboratory results as given in publication PMC2739297.

Biological target: T1, DPS-Like protein (DPSL) from Sulfolobus solfataricus, purified recombinant dodecameric DPSL (Sulfolobus solfataricus) (UniProt P95855)
T1 sequence: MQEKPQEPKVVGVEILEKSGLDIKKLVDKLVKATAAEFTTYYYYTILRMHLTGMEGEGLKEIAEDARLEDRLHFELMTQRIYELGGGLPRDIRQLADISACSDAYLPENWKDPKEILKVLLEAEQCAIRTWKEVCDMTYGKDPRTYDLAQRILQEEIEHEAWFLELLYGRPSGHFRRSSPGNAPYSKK
Assay: affinity purification with mass spectrometry; recombinant DPSL coupled to AminoLink Plus agarose beads, mixed with S. solfataricus total cell lysate with protease inhibitors for 2 hrs at 4°C; washed three times with 50 mM MES pH 7.2, 100 mM NaCl, 0.3% NP-40, 2 mM EDTA; eluted with glycine pH 2.5/2.6 or digested with trypsin on the beads; LC-MS/MS; mock agarose beads as control; three replicates; only the target purified

B1: Superoxide dismutase [Fe] (sod) of Sulfolobus solfataricus (enzyme, UniProt P80857 1-211)
chain: MTLQIQFKKYELPPLPYKIDALEPYISKDIIDVHYNGHHKGYVNGANSLLERLEKVVKGDLQTGQYDIQGIIRGLTFNINGHKLHALYWENMAPSGKGGGKPGGALADLINKQYGSFDRFKQVFTETANSLPGTGWAVLYYDTESGNLQIMTFENHFQNHIAEIPIILILDEFEHAYYLQYKNKRADYVNAWWNVVNWDAAEKKLQKYLTK
binding: binds

B2: Peroxiredoxin, bacterioferritin comigratory protein homolog (bcp-2) of Sulfolobus solfataricus (enzyme, UniProt P95895 1-215)
chain: MSEERIPLIGERFPEMEVITTQGRIKLPDDYKGRWFVLFSHPGDFTPVCTTEFYSFAKKYEEFKKLNTELIGLSVDSNISHIEWIMWIEKNLKVEIPFPIIADPMGNVAKRLGMIHAQSSTATVRAVFVVDDKGVVRLILYYPMEIGRNIDEILRAIRALQLVDKAGVVTPANWPNNELIGDKVINPAPRTIKDAKMRLGQPFDWWFTYKEVKTT
binding: binds

These are yes or no findings as the source states them, for the method shown. Binding seen in cells or lysates may run through a third protein. Here binding means that the protein was enriched with, or labelled near, the bait; the list need not be complete.
